# Literature values, collected in article PMC2997942 (Molecular pharmaceutics, 2010).
# Molecular target: OCTN2
# Details: Mouse enterocyte; cited from earlier work
smiles,measurement,value
CN(C)CCOC(c1ccccc1)c1ccccc1 [Diphenhydramine],Ki or IC50,Not inhibitor
